# The supplement of paper PMC5407854, “Inhibitor of ppGalNAc-T3-mediated O-glycosylation blocks cancer cell invasiveness and lowers FGF23 levels” (eLife, 2017)
# Over roughly 1,700 compounds, “T3 sensor activation Q score (MG/GFP ratio z-score vs DMSO controls)” has its median near 0.25; the highest 2% begin near 1.9. The list shows a part of the results.
# Test system: ppGalNAc-T3 sensor
# Experiment: T3 sensor activation Q score (MG/GFP ratio z-score vs DMSO controls) (SD units); higher = more sensor activation (inhibition of ppGalNAc-T3 glycosylation)
# Settings: HEK293 sensor cells; 10 µM; 6 h
# Protocol: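 Cells were treated with compound at 10 uM for 6 h, then MG/GFP ratio was read by flow cytometry (10,000 cells per well, duplicate wells). Q = (R - R_neg)/SD_neg relative to DMSO vehicle controls; the signal rises when the glycosyltransferase is inhibited.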
row,SMILES,T3 sensor activation Q score
1,O=C1c2ccccc2C(=O)c2c1cccc2-n1nnc2ccccc21,1.65
2,C[C@]12CC[C@H](O)CC1=CC[C@@H]1[C@@H]2CC[C@]2(C)c3[nH]ncc3C[C@@H]12,0.6
3,Cc1ccc(NC(=O)Nc2cccnc2)cc1NC(=O)Nc1cccnc1,0.95
4,C#CCOCC1CN(c2ccccc2)C(=O)O1 (stereo not given),1.9
5,CC(=C/c1ccccc1)/C=C1/NC(=S)NC1=O,0.6
6,O=C1c2ccccc2C(=O)C1c1ccccn1,-1
7,Cc1ccc(NC(=O)NNC(=O)CSC2CCc3ccccc32)c(C)c1 (stereo not given),-0.55
8,CC1(C)OC2C(CO)OC(n3cnc4c(=S)nc[nH]c43)C2O1 (stereo not given),0.4
9,COc1ccc(NC(=O)c2cc3ccc4c5ccccc5[nH]c4c3cc2O)cc1,-0.3
10,C=CCSc1n[nH]c(-c2cccs2)n1,0.35
11,c1ccc2c(c1)-c1cccc3cncc-2c13,0.5
12,CC(C)(C)N1CCC1CN (stereo not given),1.8
13,N#CC1=CC2CN(Cc3ccccc3)C1C1C(=O)N(c3ccccc3)C(=O)C21 (stereo not given),0.45
14,O=C(c1cccnc1)N1CCN(c2ccccc2Cl)CC1,-0.05
15,S=C1N(c2ccccc2)CN(C2CCCCC2)CN1c1ccccc1,0.75
16,NC(=O)C(=Cc1ccncc1)c1cccc2ccccc12,-1.2
17,CO[C@H]1C[C@@H]2CC[C@@H](C)[C@@](O)(O2)C(=O)C(=O)N2CCCC[C@H]2C(=O)O[C@H]([C@H](C)C[C@@H]2CC[C@@H](O)[C@H](OC)C2)CC(=O)[C@H](C)/C=C(\C)[C@@H](O)[C@@H](OC)C(=O)[C@H](C)C[C@H](C)/C=C/C=C/C=C/1C,0
18,OC(c1ccccc1)(c1ccccc1)c1nccn1-c1ccccc1,0
19,CN(C)S(=O)(=O)c1ccccc1N=C=S,-1.15
20,NCCN1CCNCC1,1.85
21,Cc1nc2ccccc2nc1N1CCCC1,0
22,COc1cc(C(=O)OC(C)CN2CCOCC2)cc(OC)c1OC (stereo not given),1.25
23,O=S(=O)(O)c1ccc(N=Nc2ccccc2)cc1,1
24,Cc1ccc(S(=O)(=O)NC(=O)Nc2nccs2)cc1,0.2
25,CC1=CN2C(c3cccc([N+](=O)[O-])c3)=NON(c3ccc(C)cn3)C2C=C1 (stereo not given),0.45

row,SMILES,T3 sensor activation Q score
1,c1ccc(-c2cc3ccccc3[nH]2)cc1,0.45
2,COc1ccc(C(=O)O)nc1C,-1.45
3,Nc1ccc(N=Nc2ccccc2Cl)c(N)n1,1.7
4,O=c1c(-c2ccc(O)cc2)coc2cc(O)cc(O)c12,-0.45
5,Cc1cc(NC(=O)c2ccccc2)nc(C)n1,0.05
6,COc1ccccc1C1OC2=C(Nc3ccc([N+](=O)[O-])cc3N2)C1=O (stereo not given),0.85
7,COc1ccc(/C(C#N)=C/c2cccnc2)cc1,0.15
8,CCNc1nn2ccccc2c1C=C(C#N)C(=O)OCC,1.55
9,O=C(Cn1ccc(=O)[nH]c1=O)Nc1nccs1,0.2
10,FC(F)(F)c1nc2nc(Cl)c(Cl)nc2n1CCCN1CCOCC1,1.75
11,Nc1ccc(NC(=S)Nc2ccccc2)cc1,1.8
12,COc1cc2c(c3c1c(=O)c1cccc(F)c1n3C)C=CC(C)(C)O2,-1.6
13,Cn1[nH]cc(/C=N/C(N)=O)c1=O,-0.85
14,O=C(O)CCNC1CCCCC1,-1.8
15,Nc1ccc2c(c1)Cc1cc(Cl)c(Cl)cc1-2,-0.65
16,O=C(Nc1csnn1)c1csnn1,0.95
17,CC(C)(C)CC(C)(C)N1CNC(=S)NC1,1.1
18,CCc1c2c(nc3ccc(OC(=O)N4CCC(N5CCCCC5)CC4)cc13)-c1cc3c(c(=O)n1C2)COC(=O)[C@]3(O)CC,-1
19,Cc1cn(C2CC(O)C(CO)O2)c(=O)n(Cc2ccccc2)c1=O (stereo not given),0.1
20,CC(C)(C)n1nc(C2CC2)cc1NC(=O)Nc1ccc(Cl)cc1,0.7
21,CCC1=C[C@@H]2CN(C1)Cc1c([nH]c3ccccc13)[C@@](C(=O)OC)(c1cc3c(cc1OC)N(C)[C@H]1[C@@](O)(C(=O)OC)[C@H](OC(C)=O)[C@]4(CC)C=CCN5CC[C@]31[C@@H]54)C2,0.7
22,CSc1nc(=S)c2[nH]c(=S)[nH]c2[nH]1,0.35
23,Cc1cnc2cc(Cl)ccc2c1SCC(=O)O,0.5
24,S=c1c2[nH]cnc2ncn1CCSc1ncnc2nc[nH]c12,1.2
25,NC(=O)c1ccccc1NC(=O)COc1ccc(Cl)cc1,0.55

# Some of the entries so far, with tabs.
row	SMILES	T3 sensor activation Q score
16	O=C(Nc1csnn1)c1csnn1	0.95
17	CC(C)(C)CC(C)(C)N1CNC(=S)NC1	1.1
18	CCc1c2c(nc3ccc(OC(=O)N4CCC(N5CCCCC5)CC4)cc13)-c1cc3c(c(=O)n1C2)COC(=O)[C@]3(O)CC	-1
19	Cc1cn(C2CC(O)C(CO)O2)c(=O)n(Cc2ccccc2)c1=O (stereo not given)	0.1

# Reprinted at random: two records from the list.
row,SMILES,T3 sensor activation Q score
19,Cc1cn(C2CC(O)C(CO)O2)c(=O)n(Cc2ccccc2)c1=O (stereo not given),0.1
7,COc1ccc(/C(C#N)=C/c2cccnc2)cc1,0.15

# The results go on.

row,SMILES,T3 sensor activation Q score
1,COC1C(=O)CCC2(CO2)C1(O)C1(C)OC1CC=C(C)C (stereo not given),-1.6
2,O=C(NC(=S)Nc1cc(Cl)ccc1O)c1cccc(Br)c1,1.4
3,CC1(c2ccccc2)O[C@@H]2C[C@H]3[C@@H]4CCC5=CC(=O)C=C[C@]5(C)[C@@]4(F)[C@@H](O)C[C@]3(C)[C@]2(C(=O)CO)O1 (stereo not given in full),3.35
4,Cc1cc2c(cc1C)N(C(=O)CCl)CC(=O)N2,-0.8
5,CC(C)CC(NC(=O)OCc1ccccc1)C(=O)NC(Cc1c[nH]c2ccccc12)C(=O)O (stereo not given),-0.85
6,N.N.O=C([O-])C1(C(=O)[O-])CCC1.[Pt+2],0.65
7,NCC(=O)c1cccc2ccc[n+]([O-])c12,0.6
8,COc1ccccc1/C=C1\Cc2ccccc2C1=O,-0.95
9,Cc1cc2c(cc1C)NC1=C(N2)OC(c2cccc(O)c2)C1=O (stereo not given),0.55
10,O=c1n(CC2CO2)c(=O)n(CC2CO2)c(=O)n1CC1CO1 (stereo not given),0.8
11,O=[N+]([O-])C1C(c2ccccc2)C12c1ccccc1-c1ccccc12 (stereo not given),3.55
12,CC(C)(C(N)=O)c1ccccc1,1.3
13,NC(=NOC(=O)c1ccccc1)C(Cc1ccccc1)C(=O)NOC(=O)c1ccccc1 (stereo not given),-1.75
14,CSc1nsc(NN)n1,-0.25
15,O=[N+]([O-])c1ccc(NN=C(c2ccccc2)c2ccccc2)nc1,-0.4
16,O=C(Nc1ccc(Cl)c(Cl)c1)Nc1ccccc1O,-1.1
17,O=C(O)C1CCC(=O)N1C(=O)OCc1ccccc1 (stereo not given),0.1
18,OCC1(CO)COC2(CCCC2)N1,0.35
19,N#C/C(=C\c1ccc(C#N)cc1)C(=O)c1ccccc1,0.75
20,CC(NC(=O)c1ccc(Cl)c(Cl)c1)c1ccc(-c2ccccc2)cc1 (stereo not given),0.25
21,Cc1ccc(C)c(N2CCN(c3ccncc3N)CC2)c1,-1.25
22,CNNCc1ccc(C(=O)NC(C)C)cc1,1.85
23,CC1=CC(=O)C(C(C)=Nc2ccccc2Cl)C(=O)O1 (stereo not given),1.35
24,O=c1[nH]c(=O)n([C@H]2C[C@H](O)[C@@H](CO)O2)cc1F,0.9
25,NS(=O)(=O)c1ccc(Cl)cc1[N+](=O)[O-],-0.35
